Experimental data published in PubChem BioAssay AID250 (DTP/NCI, 2004).
The list shows only some results of the screen, not a fair sample: it gathers some chemical classes. Not every dose and run of a compound is shown. T/C: endpoint of the treated group in % of that of the vehicle group. Some doses have a count of surviving animals in place of a T/C: the source holds a T/C of zero for them, seemingly a mark for toxic or unscored doses. Some doses without a T/C left all or most animals alive at the check, yet need not have been tolerated: survival well below the control is almost never listed, so the zero probably covers shortened survival too. For part of these data: Counts of survivors are from the toxicity check (mostly the fifth day) where no day follows; animals may have died later. Schedules are NCI's codes, read here as Q, the interval in days (D) or hours (H), X, the number of doses. For survival time, this PubChem deposit counts one and a half times the control or more as active, and values a quarter to a half above the control carry no call in these data; other NCI protocols may use other cut-offs. Some entries were tested several times; the results are listed from low to high. Some schedules carry Z or #; the key to these is not given. Some T/C values carry the count of animals alive at the toxicity check (mostly the fifth day); without a count or a note in brackets, all were alive then.

Tests used:
[1] = test system: BDF1 mice, L1210 leukemia sc, survival T/C; assay: NCI In Vivo Anticancer Drug Screen. Data for tumor model L1210 Leukemia (subcutaneous) in B6D2F1 (BDF1) mice; conditions: T/C endpoint: median survival time, higher T/C = longer survival
Procedure, shortened: (§1)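 Expressed as T/C: measurement in compound-treated, tumor-bearing mice relative to vehicle-treated control mice, based on survival or tumor size.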

[2] = test system: BDF1 mice, L1210 leukemia sc; assay: as above; conditions: T/C endpoint: median survival time, higher T/C = longer survival
Procedure, shortened: as §1

[3] = dose: 180.0 mg/kg/injection, schedule: Q07DX003 (sc), vehicle: Klucel (hydroxypropylcellulose) (HPC), evaluated on day 7

NC(=O)c1[nH]cnc1/N=N\N(CCCl)CCCl
T/C ([1]; dose: 12.5 mg/kg/injection, schedule: Q01DX009 (ip), vehicle: Klucel (hydroxypropylcellulose) (HPC)): 165 % of control | T/C ([1]; dose: 18.75 mg/kg/injection, schedule: Q01DX009 (sc), vehicle: saline with Tween-80): 152 % of control [9 of 10 alive] | T/C ([1]; dose: 25.0 mg/kg/injection, schedule: Q01DX009 (ip), vehicle: Klucel (hydroxypropylcellulose) (HPC)): 190 % of control | T/C ([1]; dose: 37.5 mg/kg/injection, schedule: Q01DX Z (sc), vehicle: carboxymethylcellulose (CMC)): 116 % of control | T/C ([1]; dose: 37.5 mg/kg/injection, schedule: Q## X Z (sc), vehicle: carboxymethylcellulose (CMC)): 122 % of control | T/C ([1]; dose: 50.0 mg/kg/injection, schedule: Q01DX009 (ip), vehicle: Klucel (hydroxypropylcellulose) (HPC)): 180 % of control | T/C ([1]; dose: 74.0 mg/kg/injection, schedule: Q## X Z (sc), vehicle: carboxymethylcellulose (CMC)): 366 % of control | T/C ([1]; dose: 75.0 mg/kg/injection, schedule: Q01DX009 (sc), vehicle: saline with Tween-80): 204 % of control | T/C ([1]; dose: 75.0 mg/kg/injection, schedule: Q01DX Z (sc), vehicle: carboxymethylcellulose (CMC)): 300 % of control | T/C ([1]; dose: 149.0 mg/kg/injection, schedule: Q## X Z (sc), vehicle: carboxymethylcellulose (CMC)): 500 % of control | T/C ([1]; dose: 150.0 mg/kg/injection, schedule: Q01DX009 (sc), vehicle: saline with Tween-80): 163 % of control | T/C ([1]; dose: 150.0 mg/kg/injection, schedule: Q01DX Z (sc), vehicle: carboxymethylcellulose (CMC)): 366 % of control | T/C ([1]; dose: 150.0 mg/kg/injection, schedule: Q07DX Z (sc), vehicle: carboxymethylcellulose (CMC)): 150 % of control | T/C ([1]; dose: 150.0 mg/kg/injection, schedule: Q## X Z (sc), vehicle: carboxymethylcellulose (CMC)): 227 % of control | T/C [1, 3]: 209 and 222 % of control | T/C ([1]; dose: 180.0 mg/kg/injection, schedule: Q07DX003 (sc), vehicle: Klucel (hydroxypropylcellulose) (HPC), evaluated on day 63): 209 % of control | T/C ([1]; dose: 180.0 mg/kg/injection, schedule: Q07DX003 (sc), vehicle: Klucel (hydroxypropylcellulose) (HPC), evaluated on day 64): 211 % of control | T/C ([1]; dose: 180.0 mg/kg/injection, schedule: Q08DX003 (sc), vehicle: steroid suspending solution, evaluated on day 6): 157 % of control | T/C ([1]; dose: 180.0 mg/kg/injection, schedule: Q08DX003 (sc), vehicle: steroid suspending solution, evaluated on day 47): 161 % of control | T/C ([1]; dose: 299.0 mg/kg/injection, schedule: Q01DX001 (sc), vehicle: carboxymethylcellulose (CMC)): 172 % of control | T/C ([1]; dose: 299.0 mg/kg/injection, schedule: Q## X Z (sc), vehicle: carboxymethylcellulose (CMC)): 344 % of control | T/C ([1]; dose: 300.0 mg/kg/injection, schedule: Q01DX Z (sc), vehicle: carboxymethylcellulose (CMC)): 294 % of control | T/C ([1]; dose: 300.0 mg/kg/injection, schedule: Q07DX003 (sc), vehicle: Klucel (hydroxypropylcellulose) (HPC), evaluated on day 7): 193, 200, 231 % of control | T/C ([1]; dose: 300.0 mg/kg/injection, schedule: Q07DX003 (sc), vehicle: Klucel (hydroxypropylcellulose) (HPC), evaluated on day 51): 165 % of control | T/C ([1]; dose: 300.0 mg/kg/injection, schedule: Q07DX003 (sc), vehicle: Klucel (hydroxypropylcellulose) (HPC), evaluated on day 63): 231 % of control | T/C ([1]; dose: 300.0 mg/kg/injection, schedule: Q07DX003 (sc), vehicle: Klucel (hydroxypropylcellulose) (HPC), evaluated on day 64): 200 % of control | T/C ([1]; dose: 300.0 mg/kg/injection, schedule: Q07DX Z (sc), vehicle: carboxymethylcellulose (CMC)): 388 % of control | T/C ([1]; dose: 300.0 mg/kg/injection, schedule: Q08DX003 (sc), vehicle: steroid suspending solution, evaluated on day 6): 202 % of control | T/C ([1]; dose: 300.0 mg/kg/injection, schedule: Q08DX003 (sc), vehicle: steroid suspending solution, evaluated on day 47): 194 % of control | T/C ([1]; dose: 300.0 mg/kg/injection, schedule: Q## X Z (sc), vehicle: carboxymethylcellulose (CMC)): 377 % of control | T/C ([1]; dose: 400.0 mg/kg/injection, schedule: Q01DX001 (ip), vehicle: Klucel (hydroxypropylcellulose) (HPC)): 206 % of control | T/C ([1]; dose: 400.0 mg/kg/injection, schedule: Q01DX009 (ip), vehicle: Klucel (hydroxypropylcellulose) (HPC)): 100 % of control | T/C ([1]; dose: 500.0 mg/kg/injection, schedule: Q07DX003 (sc), vehicle: Klucel (hydroxypropylcellulose) (HPC), evaluated on day 7): 204, 277, 293 % of control | T/C ([1]; dose: 500.0 mg/kg/injection, schedule: Q07DX003 (sc), vehicle: Klucel (hydroxypropylcellulose) (HPC), evaluated on day 51): 195 % of control | T/C ([1]; dose: 500.0 mg/kg/injection, schedule: Q07DX003 (sc), vehicle: Klucel (hydroxypropylcellulose) (HPC), evaluated on day 63): 293 % of control | T/C ([1]; dose: 500.0 mg/kg/injection, schedule: Q07DX003 (sc), vehicle: Klucel (hydroxypropylcellulose) (HPC), evaluated on day 64): 255 % of control | T/C ([1]; dose: 500.0 mg/kg/injection, schedule: Q08DX003 (sc), vehicle: steroid suspending solution, evaluated on day 6): 351 % of control | T/C ([1]; dose: 500.0 mg/kg/injection, schedule: Q08DX003 (sc), vehicle: steroid suspending solution, evaluated on day 47): 355 % of control | T/C ([1]; dose: 599.0 mg/kg/injection, schedule: Q01DX001 (sc), vehicle: carboxymethylcellulose (CMC)): 188 % of control | T/C ([1]; dose: 599.0 mg/kg/injection, schedule: Q## X Z (sc), vehicle: carboxymethylcellulose (CMC)): 216 % of control | T/C ([1]; dose: 600.0 mg/kg/injection, schedule: Q07DX Z (sc), vehicle: carboxymethylcellulose (CMC)): 411 % of control | T/C ([1]; dose: 600.0 mg/kg/injection, schedule: Q## X Z (sc), vehicle: carboxymethylcellulose (CMC)): 100 % of control | T/C ([1]; dose: 800.0 mg/kg/injection, schedule: Q01DX001 (ip), vehicle: Klucel (hydroxypropylcellulose) (HPC)): 112 % of control | survivor count ([1]; dose: 800.0 mg/kg/injection, schedule: Q01DX009 (ip), vehicle: Klucel (hydroxypropylcellulose) (HPC)): 6 of 8 | T/C ([1]; dose: 833.0 mg/kg/injection, schedule: Q07DX003 (sc), vehicle: Klucel (hydroxypropylcellulose) (HPC), evaluated on day 7): 288 and 304 % of control | T/C ([1]; dose: 833.0 mg/kg/injection, schedule: Q07DX003 (sc), vehicle: Klucel (hydroxypropylcellulose) (HPC), evaluated on day 63): 304 % of control | T/C ([1]; dose: 833.0 mg/kg/injection, schedule: Q07DX003 (sc), vehicle: Klucel (hydroxypropylcellulose) (HPC), evaluated on day 64): 283 % of control | T/C ([1]; dose: 833.0 mg/kg/injection, schedule: Q08DX003 (sc), vehicle: steroid suspending solution, evaluated on day 6): 319 % of control | T/C ([1]; dose: 833.0 mg/kg/injection, schedule: Q08DX003 (sc), vehicle: steroid suspending solution, evaluated on day 47): 322 % of control | T/C ([1]; dose: 1199.0 mg/kg/injection, schedule: Q01DX001 (sc), vehicle: carboxymethylcellulose (CMC)): 250 % of control | T/C ([1]; dose: 1200.0 mg/kg/injection, schedule: Q07DX Z (sc), vehicle: carboxymethylcellulose (CMC)): 283 % of control | T/C ([1]; dose: 1388.0 mg/kg/injection, schedule: Q07DX003 (sc), vehicle: Klucel (hydroxypropylcellulose) (HPC), evaluated on day 7): 331 % of control | T/C ([1]; dose: 1388.0 mg/kg/injection, schedule: Q07DX003 (sc), vehicle: Klucel (hydroxypropylcellulose) (HPC), evaluated on day 64): 322 % of control | T/C ([2]; dose: 37.5 mg/kg/injection, schedule: Q01DX009 (sc), vehicle: saline with Tween-80): 144 % of control [9 of 10 alive] | T/C ([2]; dose: 75.0 mg/kg/injection, schedule: Q## X Z (sc), vehicle: carboxymethylcellulose (CMC)): 127 % of control | T/C ([2]; dose: 100.0 mg/kg/injection, schedule: Q01DX001 (ip), vehicle: Klucel (hydroxypropylcellulose) (HPC)): 125 % of control | T/C ([2]; dose: 100.0 mg/kg/injection, schedule: Q01DX009 (ip), vehicle: Klucel (hydroxypropylcellulose) (HPC)): 140 % of control [7 of 8 alive] | T/C ([2]; dose: 108.0 mg/kg/injection, schedule: Q07DX003 (sc), vehicle: Klucel (hydroxypropylcellulose) (HPC), evaluated on day 7): 135 % of control | T/C ([2]; dose: 108.0 mg/kg/injection, schedule: Q07DX003 (sc), vehicle: Klucel (hydroxypropylcellulose) (HPC), evaluated on day 51): 130 % of control | T/C ([2]; dose: 108.0 mg/kg/injection, schedule: Q08DX003 (sc), vehicle: steroid suspending solution, evaluated on day 6): 136 % of control | T/C ([2]; dose: 108.0 mg/kg/injection, schedule: Q08DX003 (sc), vehicle: steroid suspending solution, evaluated on day 47): 138 % of control | T/C ([2]; dose: 149.0 mg/kg/injection, schedule: Q01DX001 (sc), vehicle: carboxymethylcellulose (CMC)): 133 % of control | T/C [2, 3]: 145 % of control | T/C ([2]; dose: 180.0 mg/kg/injection, schedule: Q07DX003 (sc), vehicle: Klucel (hydroxypropylcellulose) (HPC), evaluated on day 51): 140 % of control | T/C ([2]; dose: 200.0 mg/kg/injection, schedule: Q01DX001 (ip), vehicle: Klucel (hydroxypropylcellulose) (HPC)): 137 % of control | T/C ([2]; dose: 200.0 mg/kg/injection, schedule: Q01DX009 (ip), vehicle: Klucel (hydroxypropylcellulose) (HPC)): 135 % of control
